Measured values published in the supplement of paper PMC7661543.
The effect of the compound repeats well; differences between the knockouts mostly do not.

System: HCC-38
Test: relative cell number vs DMSO control (72 h) (% of DMSO); higher = less growth inhibition (more cells)
Experimental: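 QMAP-Seq: a pool of 5 breast cancer cell lines (ZR-75-1, SKBR3, HCC-38, MDA-MB-231, BT-20), each carrying 12 doxycycline-inducible Cas9 sgRNA perturbations (11 knockouts plus non-targeting sgNT), was treated with compounds for 72 h at four 10-fold doses (10 nM-10 uM or 1 nM-1 uM range). Barcodes were amplified and sequenced, and cell number was interpolated from 293T spike-in standard curves. The result is expressed as % of the median of DMSO wells. Two biological replicates.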

Cc1ccc(C(=O)Cn2c3c(sc2=N)CCCC3)cc1 [PifithrinAlpha]
Conditions	relative cell number
sgRNA knockout: sgATF3, 10 nM	90.4
sgRNA knockout: sgATF3, 100 nM	104
sgRNA knockout: sgATF3, 1000 nM	88.8
sgRNA knockout: sgATF3, 10000 nM	92.9
sgRNA knockout: sgATF4, 10 nM	80
sgRNA knockout: sgATF4, 100 nM	97.7
sgRNA knockout: sgATF4, 1000 nM	82.8
sgRNA knockout: sgATF4, 10000 nM	91.8
sgRNA knockout: sgATF6, 10 nM	112
sgRNA knockout: sgATF6, 100 nM	96.8
sgRNA knockout: sgATF6, 1000 nM	92.2
sgRNA knockout: sgATF6, 10000 nM	98.7
sgRNA knockout: sgATG7, 10 nM	81.5
sgRNA knockout: sgATG7, 100 nM	97.9
sgRNA knockout: sgATG7, 1000 nM	82.08
sgRNA knockout: sgATG7, 10000 nM	80.8
sgRNA knockout: sgERN1, 10 nM	94.5
sgRNA knockout: sgERN1, 100 nM	99.5
sgRNA knockout: sgERN1, 1000 nM	82.6
sgRNA knockout: sgERN1, 10000 nM	84.6
sgRNA knockout: sgHSF1, 10 nM	107
sgRNA knockout: sgHSF1, 100 nM	92.07
sgRNA knockout: sgHSF1, 1000 nM	95.4
sgRNA knockout: sgHSF1, 10000 nM	83.4
sgRNA knockout: sgHSF2, 10 nM	97.8
sgRNA knockout: sgHSF2, 100 nM	105
sgRNA knockout: sgHSF2, 1000 nM	89
sgRNA knockout: sgHSF2, 10000 nM	94.9
sgRNA knockout: sgKEAP1, 10 nM	106
sgRNA knockout: sgKEAP1, 100 nM	101
sgRNA knockout: sgKEAP1, 1000 nM	101
sgRNA knockout: sgKEAP1, 10000 nM	71.5
sgRNA knockout: sgNFE2L2, 10 nM	78
sgRNA knockout: sgNFE2L2, 100 nM	102
sgRNA knockout: sgNFE2L2, 1000 nM	81
sgRNA knockout: sgNFE2L2, 10000 nM	85.7
sgRNA knockout: sgSLC35F2, 10 nM	85.6
sgRNA knockout: sgSLC35F2, 100 nM	103.5
sgRNA knockout: sgSLC35F2, 1000 nM	85.9
sgRNA knockout: sgSLC35F2, 10000 nM	89.7
sgRNA knockout: sgXBP1, 10 nM	85.3
sgRNA knockout: sgXBP1, 100 nM	98
sgRNA knockout: sgXBP1, 1000 nM	83
sgRNA knockout: sgXBP1, 10000 nM	92.9

CCc1c2c(nc3ccc(O)cc13)-c1cc3c(c(=O)n1C2)COC(=O)[C@]3(O)CC [SN38]
Conditions	relative cell number
sgRNA knockout: sgATF3, 1 nM	95.7
sgRNA knockout: sgATF3, 10 nM	37.1
sgRNA knockout: sgATF3, 100 nM	17.8
sgRNA knockout: sgATF3, 1000 nM	13.4
sgRNA knockout: sgATF4, 1 nM	108
sgRNA knockout: sgATF4, 10 nM	41.3
sgRNA knockout: sgATF4, 100 nM	17.9
sgRNA knockout: sgATF4, 1000 nM	13.5
sgRNA knockout: sgATF6, 1 nM	91.2
sgRNA knockout: sgATF6, 10 nM	42.5
sgRNA knockout: sgATF6, 100 nM	14.8
sgRNA knockout: sgATF6, 1000 nM	12.6
sgRNA knockout: sgATG7, 1 nM	95
sgRNA knockout: sgATG7, 10 nM	39
sgRNA knockout: sgATG7, 100 nM	17.8
sgRNA knockout: sgATG7, 1000 nM	14.2
sgRNA knockout: sgERN1, 1 nM	96.7
sgRNA knockout: sgERN1, 10 nM	38.5
sgRNA knockout: sgERN1, 100 nM	17.3
sgRNA knockout: sgERN1, 1000 nM	15.8
sgRNA knockout: sgHSF1, 1 nM	83.9
sgRNA knockout: sgHSF1, 10 nM	37.1
sgRNA knockout: sgHSF1, 100 nM	17.5
sgRNA knockout: sgHSF1, 1000 nM	17.5
sgRNA knockout: sgHSF2, 1 nM	96.4
sgRNA knockout: sgHSF2, 10 nM	41.27
sgRNA knockout: sgHSF2, 100 nM	16.5
sgRNA knockout: sgHSF2, 1000 nM	13.7
sgRNA knockout: sgKEAP1, 1 nM	74.6
sgRNA knockout: sgKEAP1, 10 nM	43.5
sgRNA knockout: sgKEAP1, 100 nM	14.352
sgRNA knockout: sgKEAP1, 1000 nM	10.8
sgRNA knockout: sgNFE2L2, 1 nM	105
sgRNA knockout: sgNFE2L2, 10 nM	35.8
sgRNA knockout: sgNFE2L2, 100 nM	15.9
sgRNA knockout: sgNFE2L2, 1000 nM	14.3
sgRNA knockout: sgSLC35F2, 1 nM	105
sgRNA knockout: sgSLC35F2, 10 nM	45.6
sgRNA knockout: sgSLC35F2, 100 nM	16.7
sgRNA knockout: sgSLC35F2, 1000 nM	15.6
sgRNA knockout: sgXBP1, 1 nM	99.3
sgRNA knockout: sgXBP1, 10 nM	34.9
sgRNA knockout: sgXBP1, 100 nM	16
sgRNA knockout: sgXBP1, 1000 nM	14

COc1nc(N)nc2c1ncn2[C@@H]1O[C@H](CO)[C@@H](O)[C@@H]1O [Nelarabine]
Conditions	relative cell number
sgRNA knockout: sgATF3, 10 nM	123
sgRNA knockout: sgATF3, 100 nM	110
sgRNA knockout: sgATF3, 1000 nM	99.9
sgRNA knockout: sgATF3, 10000 nM	107
sgRNA knockout: sgATF4, 10 nM	125
sgRNA knockout: sgATF4, 100 nM	97.6
sgRNA knockout: sgATF4, 1000 nM	87.9
sgRNA knockout: sgATF4, 10000 nM	110
sgRNA knockout: sgATF6, 10 nM	117
sgRNA knockout: sgATF6, 100 nM	99.1
sgRNA knockout: sgATF6, 1000 nM	119.6
sgRNA knockout: sgATF6, 10000 nM	117
sgRNA knockout: sgATG7, 10 nM	101.2
sgRNA knockout: sgATG7, 100 nM	104.6
sgRNA knockout: sgATG7, 1000 nM	104
sgRNA knockout: sgATG7, 10000 nM	99.3
sgRNA knockout: sgERN1, 10 nM	110
sgRNA knockout: sgERN1, 100 nM	99.3
sgRNA knockout: sgERN1, 1000 nM	90.7
sgRNA knockout: sgERN1, 10000 nM	104
sgRNA knockout: sgHSF1, 10 nM	109
sgRNA knockout: sgHSF1, 100 nM	104
sgRNA knockout: sgHSF1, 1000 nM	91.6
sgRNA knockout: sgHSF1, 10000 nM	99.3
sgRNA knockout: sgHSF2, 10 nM	115
sgRNA knockout: sgHSF2, 100 nM	111
sgRNA knockout: sgHSF2, 1000 nM	101
sgRNA knockout: sgHSF2, 10000 nM	108.38
sgRNA knockout: sgKEAP1, 10 nM	96.6
sgRNA knockout: sgKEAP1, 100 nM	111
sgRNA knockout: sgKEAP1, 1000 nM	104.1
sgRNA knockout: sgKEAP1, 10000 nM	118
sgRNA knockout: sgNFE2L2, 10 nM	113
sgRNA knockout: sgNFE2L2, 100 nM	98.9
sgRNA knockout: sgNFE2L2, 1000 nM	88.7
sgRNA knockout: sgNFE2L2, 10000 nM	108.6
sgRNA knockout: sgSLC35F2, 10 nM	109
sgRNA knockout: sgSLC35F2, 100 nM	108
sgRNA knockout: sgSLC35F2, 1000 nM	97.9
sgRNA knockout: sgSLC35F2, 10000 nM	105.4
sgRNA knockout: sgXBP1, 10 nM	113
sgRNA knockout: sgXBP1, 100 nM	97.6
sgRNA knockout: sgXBP1, 1000 nM	95.8
sgRNA knockout: sgXBP1, 10000 nM	109
